The other results are listed elsewhere or left out.
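Further: competitive chemoproteomic profiling in live THP-1 cells with an iodoacetamide desthiobiotin (IA-DTB) probe, comparing probe-labelled peptide intensities in compound-treated cells against DMSO-treated controls.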

Chains of the proteins cited; added tags and fusions are not shown. Lines headed by an entry give the natural chain unless they say otherwise; changes in a name come on top.
UniProt Q9P215: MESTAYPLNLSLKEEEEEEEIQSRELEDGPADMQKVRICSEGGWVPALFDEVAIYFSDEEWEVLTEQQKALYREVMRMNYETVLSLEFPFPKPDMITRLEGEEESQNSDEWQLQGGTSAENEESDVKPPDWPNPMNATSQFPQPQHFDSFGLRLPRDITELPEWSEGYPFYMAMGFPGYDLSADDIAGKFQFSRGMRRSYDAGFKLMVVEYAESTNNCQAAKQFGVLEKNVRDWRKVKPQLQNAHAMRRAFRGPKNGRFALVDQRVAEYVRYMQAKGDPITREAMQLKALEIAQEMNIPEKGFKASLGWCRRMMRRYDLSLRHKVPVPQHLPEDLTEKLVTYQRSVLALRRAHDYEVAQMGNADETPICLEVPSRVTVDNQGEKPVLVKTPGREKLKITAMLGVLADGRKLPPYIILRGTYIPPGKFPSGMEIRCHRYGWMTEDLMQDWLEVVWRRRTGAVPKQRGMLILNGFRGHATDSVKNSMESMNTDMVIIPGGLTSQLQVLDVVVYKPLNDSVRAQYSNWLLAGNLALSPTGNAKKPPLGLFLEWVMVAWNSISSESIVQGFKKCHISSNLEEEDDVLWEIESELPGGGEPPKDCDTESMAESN
UniProt Q8ND30: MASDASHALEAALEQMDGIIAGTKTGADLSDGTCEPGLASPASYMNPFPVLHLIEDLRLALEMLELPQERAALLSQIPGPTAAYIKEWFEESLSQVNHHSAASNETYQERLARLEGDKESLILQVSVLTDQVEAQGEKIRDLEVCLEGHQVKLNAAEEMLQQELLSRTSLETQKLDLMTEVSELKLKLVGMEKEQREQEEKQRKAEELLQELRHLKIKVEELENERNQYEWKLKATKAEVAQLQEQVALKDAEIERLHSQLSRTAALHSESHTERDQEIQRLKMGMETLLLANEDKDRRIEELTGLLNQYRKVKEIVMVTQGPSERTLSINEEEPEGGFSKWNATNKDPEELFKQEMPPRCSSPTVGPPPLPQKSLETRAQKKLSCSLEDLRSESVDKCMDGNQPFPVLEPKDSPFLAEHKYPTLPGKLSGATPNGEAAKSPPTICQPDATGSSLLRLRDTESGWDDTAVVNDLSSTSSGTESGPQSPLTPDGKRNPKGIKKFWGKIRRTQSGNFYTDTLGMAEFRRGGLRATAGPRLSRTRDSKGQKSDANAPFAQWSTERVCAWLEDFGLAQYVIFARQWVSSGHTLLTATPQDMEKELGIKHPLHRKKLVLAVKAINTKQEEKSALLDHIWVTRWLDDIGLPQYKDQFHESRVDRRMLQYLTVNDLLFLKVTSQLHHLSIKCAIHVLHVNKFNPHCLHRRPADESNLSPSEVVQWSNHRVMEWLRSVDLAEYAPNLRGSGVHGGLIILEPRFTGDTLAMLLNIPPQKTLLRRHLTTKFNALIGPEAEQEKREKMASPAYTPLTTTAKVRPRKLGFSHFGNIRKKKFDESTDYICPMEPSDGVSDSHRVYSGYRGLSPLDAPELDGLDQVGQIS
UniProt Q8NBT0: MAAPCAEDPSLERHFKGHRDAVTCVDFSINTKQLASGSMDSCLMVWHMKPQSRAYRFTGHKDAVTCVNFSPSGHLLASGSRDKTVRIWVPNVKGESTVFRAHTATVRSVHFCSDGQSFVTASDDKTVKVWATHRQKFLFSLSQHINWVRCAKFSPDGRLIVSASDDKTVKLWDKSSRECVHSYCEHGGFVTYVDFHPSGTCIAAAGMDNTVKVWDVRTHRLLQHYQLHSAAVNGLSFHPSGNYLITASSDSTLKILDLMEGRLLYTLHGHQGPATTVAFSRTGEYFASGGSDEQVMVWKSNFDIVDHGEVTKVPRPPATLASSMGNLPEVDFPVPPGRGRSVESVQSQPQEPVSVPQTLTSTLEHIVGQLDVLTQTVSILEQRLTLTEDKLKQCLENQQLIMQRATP
UniProt Q7Z3K3: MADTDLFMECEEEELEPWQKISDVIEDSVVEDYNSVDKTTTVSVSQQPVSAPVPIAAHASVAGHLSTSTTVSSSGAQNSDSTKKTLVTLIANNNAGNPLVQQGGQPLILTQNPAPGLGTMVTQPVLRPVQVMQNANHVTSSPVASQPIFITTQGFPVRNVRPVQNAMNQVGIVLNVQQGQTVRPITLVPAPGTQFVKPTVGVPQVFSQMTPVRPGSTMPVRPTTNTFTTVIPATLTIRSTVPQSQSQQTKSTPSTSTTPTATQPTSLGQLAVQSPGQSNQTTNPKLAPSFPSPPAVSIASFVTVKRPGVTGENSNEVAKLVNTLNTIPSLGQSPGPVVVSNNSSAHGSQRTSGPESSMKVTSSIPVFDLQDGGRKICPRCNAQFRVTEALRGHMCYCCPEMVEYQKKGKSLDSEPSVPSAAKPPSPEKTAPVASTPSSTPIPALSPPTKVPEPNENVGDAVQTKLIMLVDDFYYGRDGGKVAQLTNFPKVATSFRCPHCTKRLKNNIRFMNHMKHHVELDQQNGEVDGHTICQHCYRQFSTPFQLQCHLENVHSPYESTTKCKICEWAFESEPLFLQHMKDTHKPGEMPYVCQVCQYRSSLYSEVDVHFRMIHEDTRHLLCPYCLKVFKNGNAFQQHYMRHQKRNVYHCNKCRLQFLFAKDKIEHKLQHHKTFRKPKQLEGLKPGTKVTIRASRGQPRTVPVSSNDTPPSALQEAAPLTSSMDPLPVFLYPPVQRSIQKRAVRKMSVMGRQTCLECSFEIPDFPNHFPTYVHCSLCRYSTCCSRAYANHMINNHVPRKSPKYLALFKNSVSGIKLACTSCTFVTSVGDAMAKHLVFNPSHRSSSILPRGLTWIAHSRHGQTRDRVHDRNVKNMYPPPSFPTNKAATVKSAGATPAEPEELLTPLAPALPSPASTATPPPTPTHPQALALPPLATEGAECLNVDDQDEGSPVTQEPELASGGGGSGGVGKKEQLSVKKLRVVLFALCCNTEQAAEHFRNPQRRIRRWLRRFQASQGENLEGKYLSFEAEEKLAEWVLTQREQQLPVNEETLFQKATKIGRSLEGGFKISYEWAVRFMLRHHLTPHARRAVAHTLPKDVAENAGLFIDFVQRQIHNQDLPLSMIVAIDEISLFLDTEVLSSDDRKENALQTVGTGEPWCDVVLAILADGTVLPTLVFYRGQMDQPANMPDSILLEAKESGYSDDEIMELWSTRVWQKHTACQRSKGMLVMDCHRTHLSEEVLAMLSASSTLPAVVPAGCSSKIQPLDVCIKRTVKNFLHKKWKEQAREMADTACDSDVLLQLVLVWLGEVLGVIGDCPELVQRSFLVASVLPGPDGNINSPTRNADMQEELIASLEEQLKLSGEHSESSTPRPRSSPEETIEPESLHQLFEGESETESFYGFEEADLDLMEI
UniProt P28340: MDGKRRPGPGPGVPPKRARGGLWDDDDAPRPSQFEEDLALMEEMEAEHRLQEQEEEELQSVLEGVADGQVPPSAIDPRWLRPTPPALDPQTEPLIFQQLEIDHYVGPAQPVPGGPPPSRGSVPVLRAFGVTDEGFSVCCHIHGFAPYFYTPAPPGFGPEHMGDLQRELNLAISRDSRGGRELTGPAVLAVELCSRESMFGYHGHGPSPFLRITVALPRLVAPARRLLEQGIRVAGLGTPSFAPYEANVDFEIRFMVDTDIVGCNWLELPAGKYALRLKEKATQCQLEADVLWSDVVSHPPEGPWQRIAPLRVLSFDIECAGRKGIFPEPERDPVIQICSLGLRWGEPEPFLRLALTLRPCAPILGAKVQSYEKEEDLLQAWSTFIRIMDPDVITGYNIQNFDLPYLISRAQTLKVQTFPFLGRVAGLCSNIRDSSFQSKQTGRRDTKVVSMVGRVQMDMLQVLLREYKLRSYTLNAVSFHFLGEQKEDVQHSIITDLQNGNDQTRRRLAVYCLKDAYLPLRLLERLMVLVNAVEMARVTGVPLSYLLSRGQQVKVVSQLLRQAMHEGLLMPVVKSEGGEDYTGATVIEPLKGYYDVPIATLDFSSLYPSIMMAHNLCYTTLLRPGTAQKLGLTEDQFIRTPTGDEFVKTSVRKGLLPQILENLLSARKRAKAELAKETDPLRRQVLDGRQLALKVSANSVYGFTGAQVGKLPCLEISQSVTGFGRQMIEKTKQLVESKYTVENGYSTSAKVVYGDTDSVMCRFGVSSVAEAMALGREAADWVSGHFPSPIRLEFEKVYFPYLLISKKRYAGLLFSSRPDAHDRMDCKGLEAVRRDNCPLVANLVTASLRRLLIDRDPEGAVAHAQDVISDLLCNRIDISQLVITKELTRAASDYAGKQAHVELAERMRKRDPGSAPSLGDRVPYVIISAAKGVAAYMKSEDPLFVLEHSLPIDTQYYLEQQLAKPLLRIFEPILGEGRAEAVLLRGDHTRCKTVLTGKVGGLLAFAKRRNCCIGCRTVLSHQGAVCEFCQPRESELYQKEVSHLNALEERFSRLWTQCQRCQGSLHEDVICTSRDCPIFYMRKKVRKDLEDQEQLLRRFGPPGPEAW
UniProt P16435: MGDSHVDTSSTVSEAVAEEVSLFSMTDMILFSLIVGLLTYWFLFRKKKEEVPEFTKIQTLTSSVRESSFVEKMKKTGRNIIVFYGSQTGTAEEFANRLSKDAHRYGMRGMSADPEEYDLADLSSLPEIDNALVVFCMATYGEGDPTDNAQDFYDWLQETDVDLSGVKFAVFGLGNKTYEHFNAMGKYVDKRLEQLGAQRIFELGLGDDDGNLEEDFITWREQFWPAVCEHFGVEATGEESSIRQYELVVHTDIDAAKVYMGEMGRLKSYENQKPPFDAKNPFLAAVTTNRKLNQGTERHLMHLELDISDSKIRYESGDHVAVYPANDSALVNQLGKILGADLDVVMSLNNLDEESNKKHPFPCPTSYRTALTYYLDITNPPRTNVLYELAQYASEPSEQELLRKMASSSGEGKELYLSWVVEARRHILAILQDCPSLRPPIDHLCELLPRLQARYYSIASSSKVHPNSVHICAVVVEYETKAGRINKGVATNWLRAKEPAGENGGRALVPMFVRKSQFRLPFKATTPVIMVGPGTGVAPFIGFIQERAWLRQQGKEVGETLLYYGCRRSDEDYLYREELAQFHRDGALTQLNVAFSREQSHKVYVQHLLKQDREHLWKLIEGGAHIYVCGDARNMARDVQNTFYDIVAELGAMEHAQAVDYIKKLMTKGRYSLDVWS
UniProt O15160, whole entry, looked up: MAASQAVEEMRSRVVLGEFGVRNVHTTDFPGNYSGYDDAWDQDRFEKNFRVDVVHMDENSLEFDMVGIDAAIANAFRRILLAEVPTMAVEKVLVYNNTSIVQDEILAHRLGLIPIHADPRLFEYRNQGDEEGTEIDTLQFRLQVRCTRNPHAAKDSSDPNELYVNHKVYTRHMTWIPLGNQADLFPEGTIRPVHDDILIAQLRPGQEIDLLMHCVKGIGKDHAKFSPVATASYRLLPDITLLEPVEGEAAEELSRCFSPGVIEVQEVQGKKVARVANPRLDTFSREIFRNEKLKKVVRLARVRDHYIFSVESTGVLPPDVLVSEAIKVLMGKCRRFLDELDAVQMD
UniProt P62937, whole entry, looked up: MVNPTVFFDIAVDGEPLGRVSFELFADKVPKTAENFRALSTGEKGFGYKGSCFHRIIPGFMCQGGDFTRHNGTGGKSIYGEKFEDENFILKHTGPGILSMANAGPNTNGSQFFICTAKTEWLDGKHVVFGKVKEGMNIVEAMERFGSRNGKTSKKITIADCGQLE
UniProt P0DPB6, whole entry, looked up: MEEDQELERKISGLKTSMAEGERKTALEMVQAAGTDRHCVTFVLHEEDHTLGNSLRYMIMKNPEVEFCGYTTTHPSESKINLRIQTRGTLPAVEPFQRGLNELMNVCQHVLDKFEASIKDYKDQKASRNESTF
UniProt P14859: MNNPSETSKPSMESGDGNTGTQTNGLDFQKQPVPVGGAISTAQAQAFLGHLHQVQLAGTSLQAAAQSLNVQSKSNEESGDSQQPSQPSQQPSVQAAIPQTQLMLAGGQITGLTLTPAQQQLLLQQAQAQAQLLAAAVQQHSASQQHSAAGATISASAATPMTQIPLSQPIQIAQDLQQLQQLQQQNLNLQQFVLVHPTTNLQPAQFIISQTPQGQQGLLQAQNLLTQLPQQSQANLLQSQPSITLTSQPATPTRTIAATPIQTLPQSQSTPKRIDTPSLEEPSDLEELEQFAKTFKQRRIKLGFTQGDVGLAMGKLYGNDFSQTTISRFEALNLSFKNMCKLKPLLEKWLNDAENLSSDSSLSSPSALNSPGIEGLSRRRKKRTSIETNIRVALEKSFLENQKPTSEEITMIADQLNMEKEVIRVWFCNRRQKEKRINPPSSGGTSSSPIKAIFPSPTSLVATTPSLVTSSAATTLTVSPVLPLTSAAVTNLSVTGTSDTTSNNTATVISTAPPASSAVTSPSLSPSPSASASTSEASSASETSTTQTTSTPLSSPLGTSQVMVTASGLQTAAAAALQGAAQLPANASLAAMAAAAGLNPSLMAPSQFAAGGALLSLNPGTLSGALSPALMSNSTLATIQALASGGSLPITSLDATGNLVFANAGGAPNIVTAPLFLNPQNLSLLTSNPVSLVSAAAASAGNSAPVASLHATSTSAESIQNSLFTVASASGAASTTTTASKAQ

Compound in the experiment: CC1Cc2ccccc2N1C(=O)C1CCCN(C1)C(=O)CCl (mixture of isomers) [TRIM25 ligand 11 (diastereomer mixture)]
As to the kind of experiment: probe-labelled cysteine peptide fold change vs DMSO (competition) (log2 fold change); higher = less target engagement (more negative = stronger competition). As to conditions: 50 µM; THP-1; incubation time: 4 h.
For “POLG_P54098_760_DGNSCNVGSPFAK (UniProt P54098)”, the “probe-labelled cysteine peptide fold change” value was -0.015.
For “POP1_Q99575_283_ALSGMCNIDTGLTFAAVHCLSGKR (UniProt Q99575)” the value was 0.0997.
For “POLR2L_P62875_10_CFTCGK (UniProt P62875)”, the “probe-labelled cysteine peptide fold change” value was -0.12.
In the case of “PNP_P00491_206_ELQEGTYVMVAGPSFETVAECR (UniProt P00491)”, the “probe-labelled cysteine peptide fold change” value was -0.037.
For “POLR2I_P36954_86_TEDHPCQK (UniProt P36954)” the value was -0.203.
Turning to “POGK_Q9P215_369_AHDYEVAQMGNADETPICLEVPSR (UniProt Q9P215)”, the “probe-labelled cysteine peptide fold change” value was -0.255.
For “PPFIBP2_Q8ND30_145_DLEVCLEGHQVK (UniProt Q8ND30)”, the “probe-labelled cysteine peptide fold change” value was 0.0923.
In the case of “POC1A_Q8NBT0_66_DAVTCVNFSPSGHLLASGSR (UniProt Q8NBT0)” it was -0.361; in that of “POGZ_Q7Z3K3_986_VVLFALCCNTEQAAEHFR (UniProt Q7Z3K3)”, 0.139.
For “POLB_P06746_239_FMGVCQLPSK (UniProt P06746)” the value was -0.104.
In the case of “POGK_Q9P215_369_RAHDYEVAQMGNADETPICLEVPSR (UniProt Q9P215)” it was -0.142.
Consider “POLD1_P28340_837_DNCPLVANLVTASLRR (UniProt P28340)”, for which the “probe-labelled cysteine peptide fold change” value is -0.14.
As for “PPA1_Q15181_113+114+123_HTGCCGDNDPIDVCEIGSK (UniProt Q15181)”, the “probe-labelled cysteine peptide fold change” value was -0.17.
Regarding “POR_P16435_629_LIEGGAHIYVCGDAR (UniProt P16435)”, the “probe-labelled cysteine peptide fold change” value is -0.0277.
In the case of “POLD3_Q15054_137_FSAIQCAAAVPR (UniProt Q15054)” it was 0.0506; in that of “POLD1_P28340_837_RDNCPLVANLVTASLRR (UniProt P28340)”, -0.0981; in that of “PPA2_Q9H2U2_44_GQPCSQNYR (UniProt Q9H2U2)”, 0.0357.
In the case of “POLR2K_P53803_22_QQPMIYICGECHTENEIK (UniProt P53803)” it was -0.208; in that of “POLR1C_O15160_256_CFSPGVIEVQEVQGK (UniProt O15160)”, -0.00981.
Consider “POLR3A_O14802_742_LQQQPGCTAEETLEALILK (UniProt O14802)”, for which the “probe-labelled cysteine peptide fold change” value is -0.0341.
For “POLR2G_P62487_106_VGLFTEIGPMSCFISR (UniProt P62487)” the value was 0.317.
For “POLR1B_Q9H9Y6_1070_SVAHVCVK (UniProt Q9H9Y6)” the value was -0.0166; for “POC1A_Q8NBT0_5_AAPCAEDPSLER (UniProt Q8NBT0)”, 0.146.
For “POLR1A_O95602_1332_CLRPEDILR (UniProt O95602)” the value was 0.148; for “PPIA_P62937_161_KITIADCGQLE (UniProt P62937)”, -0.147.
“POM121C_A8CG34_245_MVCSPVTVR (UniProt A8CG34)”: the “probe-labelled cysteine peptide fold change” value is -0.1.
For “POLR2A_P24928_109_CVCFFCSK (UniProt P24928)” the value was 0.0346; for “POGZ_Q7Z3K3_398_GHMCYCCPEMVEYQK (UniProt Q7Z3K3)”, 0.0251.
For “POFUT2_Q9Y2G5_375_DGGVAIIDQWICAHAR (UniProt Q9Y2G5)” the value was -0.0206; for “POLR1D_P0DPB6_68_NPEVEFCGYTTTHPSESK (UniProt P0DPB6)”, -0.2; for “POLK_Q9UBT6_161_RLCPQLIIVPPNFDK (UniProt Q9UBT6)”, 0.048.
For “PPFIA1_Q13136_189_CSLLEEELGATHK (UniProt Q13136)”, the “probe-labelled cysteine peptide fold change” value was 0.199.
Take “POU2F1_P14859-2_4_MLDCSDYVLDSR (UniProt P14859)”: the “probe-labelled cysteine peptide fold change” value is -0.0109.
“POLB_P06746_178_KVDSEYIATVCGSFR (UniProt P06746)”: the “probe-labelled cysteine peptide fold change” value turned out to be 0.0904.
As for “POR_P16435_472_VHPNSVHICAVVVEYETK (UniProt P16435)”, the “probe-labelled cysteine peptide fold change” value was found to be 0.00764.
In the case of “POLQ_O75417_2411_ENDAACYIDSFK (UniProt O75417)” it was -0.00781.

Source of the values: the supplement of paper PMC12067093, “Discovery and optimisation of a covalent ligand for TRIM25 and its application to targeted protein ubiquitination” (Chemical Science, 2025).
